Measurements from PMC3297495.
No constants are given. Whether binding was seen depends on the method and setting. A result given as binding can be weak or reduced; the word gives no strength.

Protein sequences, listed by entry. Tags and fused reporters are not part of them. Lines headed by an entry give the natural chain unless they say otherwise; changes in a name come on top.
UniProt B7F924: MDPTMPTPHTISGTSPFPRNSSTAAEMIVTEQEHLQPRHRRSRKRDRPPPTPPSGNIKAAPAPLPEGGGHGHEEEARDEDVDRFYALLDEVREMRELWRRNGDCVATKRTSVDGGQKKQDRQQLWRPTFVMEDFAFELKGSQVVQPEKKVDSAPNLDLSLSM
UniProt Q6L589: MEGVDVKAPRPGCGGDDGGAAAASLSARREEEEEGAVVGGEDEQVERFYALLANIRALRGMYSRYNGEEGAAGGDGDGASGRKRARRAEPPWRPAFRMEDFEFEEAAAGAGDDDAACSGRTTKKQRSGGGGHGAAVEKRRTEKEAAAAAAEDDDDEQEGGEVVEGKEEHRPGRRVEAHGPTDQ
UniProt Q5QM06: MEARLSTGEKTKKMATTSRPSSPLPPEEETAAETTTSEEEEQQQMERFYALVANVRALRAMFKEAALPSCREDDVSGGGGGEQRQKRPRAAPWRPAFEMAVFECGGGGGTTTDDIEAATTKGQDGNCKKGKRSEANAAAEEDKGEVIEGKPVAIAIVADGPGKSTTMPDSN

Each substance was assayed against T1, LexA:NH1 (rice (Oryza sativa L)) (UniProt Q9FDY4) (assay: two-hybrid; yeast; NH1 fused to LexA as bait, NRR, its mutants and homologues fused to B42AD as prey; blue colour indicates a positive interaction).
T1 sequence: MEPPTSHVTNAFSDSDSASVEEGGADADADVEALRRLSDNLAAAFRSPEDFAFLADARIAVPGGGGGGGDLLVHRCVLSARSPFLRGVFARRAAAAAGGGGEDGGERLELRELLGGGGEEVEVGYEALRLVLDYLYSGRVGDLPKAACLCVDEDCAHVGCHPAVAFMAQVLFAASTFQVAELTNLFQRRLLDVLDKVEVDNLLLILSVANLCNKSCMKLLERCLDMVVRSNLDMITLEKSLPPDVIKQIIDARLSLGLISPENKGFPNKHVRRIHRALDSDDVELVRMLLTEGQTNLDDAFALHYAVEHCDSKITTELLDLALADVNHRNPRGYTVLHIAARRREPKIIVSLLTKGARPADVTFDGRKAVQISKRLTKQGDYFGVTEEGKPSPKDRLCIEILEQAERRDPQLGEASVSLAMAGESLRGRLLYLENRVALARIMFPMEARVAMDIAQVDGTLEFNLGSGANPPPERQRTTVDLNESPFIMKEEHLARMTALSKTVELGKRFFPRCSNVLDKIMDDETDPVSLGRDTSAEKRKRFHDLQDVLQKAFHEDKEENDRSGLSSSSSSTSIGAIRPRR

Substance	binding
B42AD:RH3 (from UniProt B7F924)	binds
B42AD:RH1 (from UniProt Q6L589)	binds
B42AD:RH2 (from UniProt Q5QM06)	binds weakly
